# Among all 320,000 compounds or so, about 2,100 (0.66%) were called active. Inconclusive results, whose numbers are uncertain, are shown with a selection of clear calls. The call rests on the fitted dose curve; in most records, active means well fitted inhibition curve with a large enough effect in the signal ratio, with a control signal flat (not every such curve was filed as active); inconclusive means small, poorly fitted or top-dose-only effect, or effect the other way, or a change in a side signal; inactive means flat fitted curve, though single readings scatter; the % refers to the signal ratio. Potencies of inconclusive entries are doubtful fits and often do not repeat.
# Assay: qHTS Assay for Lipid Storage Modulators in Drosophila S3 Cells
# Conditions: BODIPY lipid droplet fluorescence, 18-24 h, cells fed with added oleic acid; lipid storage change, negative = inhibition: at 46.1 µM (top of the series) unless noted
# In short: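 Drosophila S3 cells loaded with oleic acid (400 uM, as added) and compounds at several concentrations; lipid droplets imaged by 488-nm laser-scanning cytometry, 500–530 nm intensity and object ratio to cell channel. Percent activity normalized to 20 uM Triacsin C.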
# On the % scale 0 is the no-effect control and ±100 the full control effect; potency means the concentration at half of the fitted maximal effect.
SMILES,"lipid storage change, negative = inhibition",Potency,outcome
COc1ccc(OC)c(/C=N\NC(=O)c2cc3c(ccc4ccccc43)o2)c1,inconclusive: -100%,–,–
CC(C)(C)C(=O)Nc1ccc(-c2cc3cc(Cl)ccc3o2)cc1,inconclusive: 6.95%,–,–
O=C(NC1CCN(Cc2ccccc2)CC1)c1cccc(S(=O)(=O)Nc2cc(C(F)(F)F)ccc2Cl)c1,–,"inconclusive: 29.1 µM [falling, single point]",–
CCOC(=O)c1cnn(-c2ccccc2)c1NC(=O)c1ccccc1,–,"inconclusive: 23.1 µM [activator, partial curve, poor fit]",–
COc1ccccc1N(C(=O)CNS(=O)(=O)c1ccccc1)C(C(=O)NCc1ccco1)C(C)C (configuration not stated),inconclusive: 15.3%,–,–
Oc1[nH]c2ccccc2c1C1=NCCCCC1,inconclusive: 12.7%,–,–
CCN(CC)CCN1C(=O)C(=O)/C(=C(/O)c2ccc(S(=O)(=O)N3CCOCC3)cc2)C1c1ccc(C(C)(C)C)cc1 (configuration not stated),–,"inconclusive: 0.184 µM [activator, single point]",–
CCN1CCN(C(c2ccccc2F)c2nnnn2Cc2ccc3c(c2)OCO3)CC1 (configuration not stated),inconclusive: 7.69%,–,–
CCc1ccccc1OC[C@@H](O)CN[C@H]1CCCc2ccccc21,–,"inconclusive: 29.1 µM [falling, single point]",–
COc1ccc(C(=O)OCC(=O)c2cc(OC)ccc2OC)c(OC)c1,–,"inconclusive: 29.1 µM [activator, single point]",–
Cc1cccc(NC(=O)CN2C(=O)NC3(CCCC3)C2=O)n1,inconclusive: -0.211%,–,–
CN(C)/C=C1\C(=O)N(c2ccc([N+](=O)[O-])cc2)N=C1c1ccccc1,–,"inconclusive: 29.1 µM [falling, single point]",–
COc1ccc(OCCNc2cc(N3CCCCC3)ccc2[N+](=O)[O-])cc1,inconclusive: -44.1%,–,–
NNc1nc(-c2ccccc2)cc(-c2ccc(Br)cc2)n1,inconclusive: -28.7%,–,–
Cc1ccoc1C(=O)N1CCCC(CO)(Cc2ccc(F)cc2)C1 (configuration not stated),–,"inconclusive: 10.3 µM [falling, partial curve, poor fit]",–
CCn1cc(C(=O)N2CCN(Cc3ccc4c(c3)OCO4)CC2)c(=O)c2ccc(C)nc21,–,"inconclusive: 9.2 µM [rising, partial curve]",–
NC(=O)CC[C@H](NC(=O)OCc1ccccc1)C(=O)OCc1ccc(Cl)cc1,–,"inconclusive: 13 µM [activator, partial curve]",–
Cc1ccc(C(=O)C(C)OC(=O)C2CCN(c3ccc(C(F)(F)F)cn3)CC2)cc1 (configuration not stated),inconclusive,–,–
CCS(=O)(=O)Nc1cccc(C2=NN(S(=O)(=O)CC)C(c3ccccc3)C2)c1 (configuration not stated),inconclusive: -1.52%,–,–
O=C(Nc1ccc(C(=O)N2CCCc3ccccc32)cc1)c1cccs1,inconclusive: -21.7%,–,–
Cc1oc(-c2cc(Cl)cc(Cl)c2)cc1C(=O)NCCc1ccccc1,–,"inconclusive: 2.06 µM [activator, single point]",–
COc1ccc(CN(CC(=O)NCc2ccc(F)cc2)C(=O)CCC(=O)Nc2ccccn2)cc1,–,"inconclusive: 6.51 µM [falling, single point]",–
CCN(CC)CCCNC(=O)C1CCN(c2ncnc3c2sc2cccc(F)c23)CC1,inconclusive: -19.2%,–,–
COc1ccc(CC(=O)Nc2nnc(SCC(=O)NCc3ccco3)s2)cc1OC,inconclusive: -21.1% [at 9.22 µM],–,–

SMILES,"lipid storage change, negative = inhibition",Potency,outcome
O=C(CSC1=NC(=O)C(c2ccccc2)C(=O)N1)Nc1ccccc1Cl (configuration not stated),–,"inconclusive: 0.092 µM [falling, full curve, poor fit]",–
CC(=O)c1ccc(NC(=S)Nc2ccn(Cc3ccc(Br)cc3)n2)cc1,inconclusive: -10.5%,–,–
c1ccc(-c2csc3ncnc(NCC4COc5ccccc5O4)c23)cc1 (configuration not stated),–,active: 1.84 µM,–
CC(C)Nc1oc(-c2cccc3ccccc23)nc1C#N,inconclusive: 26.4%,–,–
CC(=O)Nc1ccc(/C(C)=N/NS(=O)(=O)c2ccccc2)cc1,inconclusive: 6.54%,–,–
CCOCCCNC(=O)c1ccc(OC2CCN(C(C)=O)CC2)c(OC)c1,inconclusive: 15%,–,–
CSc1ccccc1NC(=O)c1ccccc1N(C)S(C)(=O)=O,–,"inconclusive: 11.6 µM [falling, single point]",–
CCCCn1c(N)c(N(C)C(=O)C2CCCC2)c(=O)[nH]c1=O,–,"inconclusive: 0.13 µM [falling, full curve, poor fit]",–
Cc1nn(-c2ccccn2)c2c1C(=O)C(Br)CC2 (configuration not stated),inconclusive: -4.24%,–,–
N#CCCN(C(=O)CN1CCN(S(=O)(=O)c2ccc3c(c2)OCCO3)CC1)c1ccc(F)cc1,inconclusive: 0.703%,–,–
COc1ccccc1C(=O)NCC(=O)NCc1cc(=O)n(C)c(=O)n1C,inconclusive: -164%,–,–
Cc1ccc2nc3c(c(C(=O)OCC(=O)N(C)C4CCS(=O)(=O)C4)c2c1)CCCC3 (configuration not stated),inconclusive: 8.96%,–,–
O=C(CNC(=O)c1ccc(Cl)cc1)OCCN1C(=O)c2ccccc2C1=O,inconclusive: 33.3%,–,–
Cc1cc(C)c(-c2cc(NC(=O)COC(=O)c3ccc(NC(=O)CC#N)cc3)n(-c3ccccc3)n2)cc1C,inconclusive: 19.2%,–,–
COCCCn1c(C(=O)N2CC(C)OC(C)C2)cc2c(=O)n3cccc(C)c3nc21 (configuration not stated),–,–,inactive [at 46.1 µM]
Cc1sc2nc(C(C)C)oc(=O)c2c1C,inconclusive: -15.3%,–,–
CCC(Sc1nc(=O)cc(N)n1-c1ccccc1)C(=O)Nc1cc(C)on1 (configuration not stated),inconclusive: -4.46%,–,–
CC(C)C1Oc2ccccc2N(CC(=O)N(Cc2ccccn2)CC2CCCO2)C1=O (configuration not stated),inconclusive: -24.1%,–,–
N#CCCN(C(=O)COC(=O)C1CCN(S(=O)(=O)c2ccc3c(c2)OCCO3)CC1)c1ccccc1,inconclusive: -36.1%,–,–
COC(c1ccccc1)c1nnc(CCC(=O)NCCc2ccc(Cl)cc2)o1 (configuration not stated),–,active: 14.6 µM,–
O=S(=O)(c1ccc(Br)cc1)N1CCN(Cc2ccco2)CC1,–,"inconclusive: 29.1 µM [falling, single point]",–
Cc1ccc(OCC(=O)N(c2ccccn2)C2CCCCC2)c(C)c1,inconclusive: 22.9%,–,–
CCOC(=O)CSCC(=O)Nc1ccc(S(=O)(=O)N2CCCCC2)cc1,inconclusive: -0.303%,–,–

# From PubChem BioAssay AID2685 (National Center for Advancing Translational Sciences (NCATS), 2010)
